These are yes or no findings as the source states them, for the method shown. In cells and extracts the contact can be indirect. Some binding calls cover weakened binding; strength is not graded here.
Target: 53BP1 in 293T cells (co-IP with ectopic TRABID) (UniProt Q12888)
Experiment: co-IP; SPOP-53BP1 interaction in cells expressing TRABID WT or the catalytically dead mutant (Supplementary Fig. 2h); legend not shown, method taken from the only interaction method in the Methods

By UniProt entry, the sequences of proteins in these tests, tags left out.
UniProt Q12888: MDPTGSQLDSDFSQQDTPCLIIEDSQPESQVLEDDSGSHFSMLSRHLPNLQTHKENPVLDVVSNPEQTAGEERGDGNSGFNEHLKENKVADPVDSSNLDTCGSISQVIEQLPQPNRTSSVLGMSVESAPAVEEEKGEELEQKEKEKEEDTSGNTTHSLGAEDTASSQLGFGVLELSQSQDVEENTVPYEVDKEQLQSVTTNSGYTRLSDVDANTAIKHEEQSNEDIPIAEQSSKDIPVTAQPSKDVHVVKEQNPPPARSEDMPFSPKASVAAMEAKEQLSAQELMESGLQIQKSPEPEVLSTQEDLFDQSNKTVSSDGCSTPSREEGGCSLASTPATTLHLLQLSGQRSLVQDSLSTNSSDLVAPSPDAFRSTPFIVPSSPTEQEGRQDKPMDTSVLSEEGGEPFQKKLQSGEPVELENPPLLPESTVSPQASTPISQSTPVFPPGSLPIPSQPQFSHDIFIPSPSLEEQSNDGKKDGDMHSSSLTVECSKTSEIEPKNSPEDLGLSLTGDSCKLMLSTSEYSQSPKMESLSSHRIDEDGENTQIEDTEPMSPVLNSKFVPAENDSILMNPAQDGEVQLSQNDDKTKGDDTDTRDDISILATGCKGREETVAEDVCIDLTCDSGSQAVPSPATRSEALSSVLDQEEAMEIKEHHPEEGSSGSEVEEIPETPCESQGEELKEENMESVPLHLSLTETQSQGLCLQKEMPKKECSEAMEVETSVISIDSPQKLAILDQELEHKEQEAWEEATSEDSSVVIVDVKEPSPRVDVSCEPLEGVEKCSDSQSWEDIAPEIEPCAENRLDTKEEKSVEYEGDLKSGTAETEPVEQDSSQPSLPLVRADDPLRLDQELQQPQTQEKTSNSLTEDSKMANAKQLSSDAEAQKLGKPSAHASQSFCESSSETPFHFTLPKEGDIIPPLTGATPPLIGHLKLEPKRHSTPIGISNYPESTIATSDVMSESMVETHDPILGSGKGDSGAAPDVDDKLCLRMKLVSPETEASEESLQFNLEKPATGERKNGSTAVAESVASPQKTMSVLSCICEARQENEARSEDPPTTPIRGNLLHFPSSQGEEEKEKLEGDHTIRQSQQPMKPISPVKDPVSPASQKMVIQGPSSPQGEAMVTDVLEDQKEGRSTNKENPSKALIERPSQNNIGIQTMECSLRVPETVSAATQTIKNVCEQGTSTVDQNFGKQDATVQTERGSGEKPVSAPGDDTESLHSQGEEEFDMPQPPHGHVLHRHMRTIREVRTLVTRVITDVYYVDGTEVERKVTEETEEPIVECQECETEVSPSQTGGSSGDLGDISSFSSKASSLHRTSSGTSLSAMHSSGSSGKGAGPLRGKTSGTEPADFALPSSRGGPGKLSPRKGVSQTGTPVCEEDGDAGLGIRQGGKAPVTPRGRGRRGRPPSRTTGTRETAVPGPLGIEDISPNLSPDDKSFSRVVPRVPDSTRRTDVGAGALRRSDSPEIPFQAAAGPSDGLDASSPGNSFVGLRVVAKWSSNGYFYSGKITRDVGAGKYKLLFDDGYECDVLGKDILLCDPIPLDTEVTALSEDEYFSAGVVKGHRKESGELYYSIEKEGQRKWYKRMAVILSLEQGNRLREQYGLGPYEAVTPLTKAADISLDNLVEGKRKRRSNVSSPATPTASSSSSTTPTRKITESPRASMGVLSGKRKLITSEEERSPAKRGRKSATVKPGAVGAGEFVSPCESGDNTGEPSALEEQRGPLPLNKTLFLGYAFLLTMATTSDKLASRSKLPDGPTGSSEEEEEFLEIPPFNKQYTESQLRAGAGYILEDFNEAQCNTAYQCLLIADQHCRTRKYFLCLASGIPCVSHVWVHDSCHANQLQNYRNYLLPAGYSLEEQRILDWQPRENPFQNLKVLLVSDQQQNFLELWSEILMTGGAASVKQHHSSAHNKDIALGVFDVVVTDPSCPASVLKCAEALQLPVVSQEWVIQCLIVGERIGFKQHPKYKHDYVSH
UniProt O43791: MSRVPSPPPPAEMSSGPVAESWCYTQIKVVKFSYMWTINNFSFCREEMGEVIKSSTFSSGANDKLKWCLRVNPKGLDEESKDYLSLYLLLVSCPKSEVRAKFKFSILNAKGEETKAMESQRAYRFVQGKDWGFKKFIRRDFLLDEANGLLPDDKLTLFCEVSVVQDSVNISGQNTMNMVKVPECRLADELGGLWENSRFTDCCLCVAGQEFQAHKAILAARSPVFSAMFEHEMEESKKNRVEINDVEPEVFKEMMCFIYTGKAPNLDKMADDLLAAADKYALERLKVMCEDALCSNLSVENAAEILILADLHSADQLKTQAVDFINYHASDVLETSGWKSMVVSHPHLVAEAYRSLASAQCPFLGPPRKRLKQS

In the case of SPOP (from UniProt O43791 1-374), the binding was “binds”.

— publication PMC10066190
